Measurements published in patent US20140301961A1, “COMPOUNDS WITH ANTI-AGING ACTIVITIES” (priority 2011, published 2014).
For at least one compound, name, drawing or mass did not settle the structure.

Tested on: pro-collagen type 1
Test: Pro-collagen 1 ELISA in dermal fibroblasts
Format: cell-based, human
Details: 24 hour stimulation, 3 donors (FIG. 5)
Description: MMP-inhibitory activity for compounds of the invention was also assessed on human dermal fibroblasts. Dermal fibroblasts were cultured in Dulbecco's Modified Eagle Medium (DMEM) (Invitrogen) with 10% EBS (ex. Invitrogen) and 1% Pencillin/Streptavidin (ex. Invitrogen). To induce inflammation in the cells, PMA (phorbol myristate acetate) (ex. Sigma) was used at a concentration of 10 nM. […] The cells were stimulated for 24 h and the culture supernatant was collected and stored at −20° C. until further analysis.
Fibroblast cells were cultured as outlined in Example 3.1 and treated with compounds of the invention The secretion of pro-collagen in the cell culture supernatants were analyzed using Pro-Collagen 1 specific ELISA (#8003; ex. Quidel). Results were compared with cell culture supernatants from DMSO vehicle treated cells. The assays utilized a 96-well microplate format and were processed according to the manufacturer's protocol, including generation of a standard curve prepared in background assay diluents. Absorbance of the assay dye was read at a Synergy HT plate reader. Values that fell within the linear range of the calibration assay were accepted. Quantities were determined by comparison to standard curve obtained for pro-collagen 1.

O=c1cc(-c2ccc(O)cc2)oc2c([C@@H]3O[C@H](CO)[C@@H](O)[C@H](O)[C@H]3O)c(O)cc(O)c12 [Vitexin]
production of pro-collagen type 1: promote pro-collagen 1 expression
